# Measurements: PubChem BioAssay AID1671190 (National Center for Advancing Translational Sciences (NCATS), 2021)
# Amino acid sequences for entries named in this document (tags omitted). A change or cut given only in a name is not applied to a line headed by its entry.
# UniProt P18054: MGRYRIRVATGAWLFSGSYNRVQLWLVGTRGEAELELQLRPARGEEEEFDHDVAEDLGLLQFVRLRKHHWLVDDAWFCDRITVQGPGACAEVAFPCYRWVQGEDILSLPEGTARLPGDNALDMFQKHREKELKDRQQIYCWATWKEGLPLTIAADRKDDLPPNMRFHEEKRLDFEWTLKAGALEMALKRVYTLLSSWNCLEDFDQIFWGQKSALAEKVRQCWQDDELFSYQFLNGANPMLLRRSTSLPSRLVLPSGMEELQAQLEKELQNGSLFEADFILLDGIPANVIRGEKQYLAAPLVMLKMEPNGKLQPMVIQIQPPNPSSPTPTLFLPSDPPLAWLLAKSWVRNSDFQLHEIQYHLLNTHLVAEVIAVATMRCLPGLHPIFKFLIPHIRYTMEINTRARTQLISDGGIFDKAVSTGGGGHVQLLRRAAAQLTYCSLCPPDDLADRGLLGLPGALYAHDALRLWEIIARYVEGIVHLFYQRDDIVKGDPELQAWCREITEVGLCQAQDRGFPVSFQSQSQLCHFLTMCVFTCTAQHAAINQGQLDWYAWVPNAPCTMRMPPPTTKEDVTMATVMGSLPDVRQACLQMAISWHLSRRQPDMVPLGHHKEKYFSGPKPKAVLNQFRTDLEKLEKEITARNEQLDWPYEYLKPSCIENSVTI
# About 6,100 (1.1%) of roughly 580,000 compounds were called active. The shares of active, inactive and inconclusive entries below differ from those in the screen. Calls come from the whole dose curve; as a rule, active = well fitted inhibition curve with a large enough effect; inconclusive = small, poorly fitted or top-dose-only effect, or another doubt; inactive = no such curve, though single readings can be large or run the other way. Potencies beside an inconclusive call are fits to weak or partial responses and may not hold up.
# Molecular target: Polyunsaturated fatty acid lipoxygenase ALOX12 (Homo sapiens) (UniProt P18054)
# Experiment: Primary qHTS assay for inhibitors of human arachidonate 12S-lipoxygenase (ALOX12): Round 2
# Details: purified 12hLO, xylenol orange hydroperoxide absorbance; series mostly up to 108 µM
# Summary of the method: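 Hydroperoxide product was detected by ferrous iron/xylenol orange as the 573 to 405 nm absorbance ratio. Arachidonic acid at 40 uM (final) was turned over for 30 min at room temperature by 150 nM human 12hLO, pH 7.0 Hepes buffer, after 15 min compound preincubation.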
# Potency is the fitted concentration of half-maximal effect.
row,Compound,Potency
1,CCNC(=O)N1CCCC1c1noc(CCC(=O)NCC(C)C)n1 (stereo unspecified),"inconclusive: 70.8 µM [inhibitor, partial curve]"
2,Cc1ccc(N/N=C/c2ccc(C#N)cc2)cc1Cl,active: 3.16 µM
3,C=C(C)COc1ccc(-c2n[nH]c(C)c2-c2ccc(OC)cc2)c(O)c1,"inconclusive: 112 µM [inhibitor, single point]"
4,COCCNc1nnc(SCC(=O)c2ccc3c(c2)OCO3)s1,"inconclusive: 56.2 µM [inhibitor, partial curve, poor fit]"
5,Cn1c(=O)c2c(n(C)c1=O)n(CC(=O)NC(C)(C)C)c(=O)n2C,"inconclusive: 126 µM [inhibitor, single point]"
6,CC(C)CC(NC(=O)/C(=C/c1ccco1)NC(=O)c1ccc(Br)o1)C(=O)O (stereo unspecified),"inconclusive: 2.82 µM [inhibitor, full curve, poor fit]"
7,Cc1ccc(CCNC(=O)C2CCN(S(=O)(=O)c3ccc4c(c3)NC(=O)C(C)S4)CC2)cc1 (stereo unspecified),inactive
8,O=C(CN1CCCCCCC1)Nc1cc(Cl)cc(Cl)c1,"inconclusive: 79.4 µM [inhibitor, partial curve, poor fit]"
9,Cc1cc2oc(=O)cc(COC(=O)c3n[nH]c4ccccc34)c2cc1C,"inconclusive: 39.8 µM [inhibitor, single point]"
10,COc1ccc(NC(=O)CSc2nc3ccsc3c(=O)n2-c2ccccc2)cc1,"inconclusive: 31.6 µM [inhibitor, partial curve, poor fit]"
11,CCCCNC(=O)CN1CCN(c2ccc(C(=O)O)cc2NS(=O)(=O)c2cccs2)CC1,"inconclusive: 3.98 µM [inhibitor, full curve, poor fit]"
12,CCSc1nc2sc3c(c2c(=O)n1CC)CCC3,"inconclusive: 50.1 µM [inhibitor, partial curve, poor fit]"
13,O=S(=O)(NCCCN1CCOCC1)c1ccc2ccccc2c1,"inconclusive: 35.5 µM [inhibitor, partial curve, poor fit]"
14,O=C(NCc1cccnc1)Nc1ccc(Br)cc1Cl,"inconclusive: 50.1 µM [inhibitor, partial curve, poor fit]"
15,CN1c2cccnc2CN(Cc2cccc(Cl)c2)CC[C@H]1CO,inactive
16,O=C(c1cccc(Cl)c1)N1CCCC(c2nn(-c3cccc(Cl)c3)c(=O)[nH]2)C1 (stereo unspecified),"inconclusive: 12.6 µM [inhibitor, full curve]"
17,O=C(CCc1nnc(CCc2c[nH]c3ccccc23)o1)NC1CCC1,inactive
18,COc1ccc(CNC2(Cc3cc(C(=O)N4CCCCC4)on3)COC2)cc1,"inconclusive: 25.1 µM [inhibitor, full curve, poor fit]"
19,Cc1c(C(=O)NC(C)CCc2ccccc2)cccc1[N+](=O)[O-] (stereo unspecified),inactive
20,CCc1ccccc1NC(=O)CSc1nc2c(oc3ccccc32)c(=O)n1-c1ccccc1,"inconclusive: 141 µM [inhibitor, partial curve, poor fit]"
21,COc1ccccc1-c1nnc2sc(-c3ccc4ccccc4n3)nn12,inactive
22,NCCSC12CC3CC(CC(C3)C1)C2,inactive

row,Compound,Potency
1,Cc1ccc(C2=CSC3=NNC4(CCCCC4)NN23)cc1,"inconclusive: 20 µM [inhibitor, full curve, poor fit]"
2,COc1ccc(Cc2nnc(NC(=O)CSc3ccccc3)s2)cc1,"inconclusive: 50.1 µM [inhibitor, partial curve, poor fit]"
3,CCc1c(C(=O)c2[nH]c(C)c(C(C)=O)c2C)oc2ccc(F)cc12,"inconclusive: 100 µM [inhibitor, single point]"
4,Cc1ccc2cc(CN(C(=O)C3CCCO3)C3CCCCC3)c(=O)[nH]c2c1 (stereo unspecified),"inconclusive: 1.26 µM [inhibitor, full curve, poor fit]"
5,CCN(CC)CCNC(=O)CCCCn1c(=S)[nH]c2c([nH]c3ccc(OC)cc32)c1=O,"inconclusive: 8.91 µM [inhibitor, full curve, poor fit]"
6,CCOc1ccc(C(=O)Nc2cccc(-c3cc4ccccc4oc3=O)c2)cc1[N+](=O)[O-],inactive
7,CCN(CC)S(=O)(=O)c1ccc(-c2nc(C#N)c(N3CCCCCC3)o2)cc1,"inconclusive: 50.1 µM [inhibitor, single point]"
8,Cc1ccc(C(=O)O/N=C(\c2ccccc2)c2ccccn2)cc1,"inconclusive: 5.01 µM [inhibitor, partial curve, poor fit]"
9,CCOc1ccc(NC(=O)CN2C(=O)CCSc3ccc(S(=O)(=O)N4CCCC4)cc32)cc1,"inconclusive: 89.1 µM [inhibitor, partial curve, poor fit]"
10,CN(C(=O)c1cc2ccccc2o1)c1c(N)n(Cc2ccccc2)c(=O)[nH]c1=O,"inconclusive: 112 µM [inhibitor, single point]"
11,O=C(Cc1ccccc1[N+](=O)[O-])N1CCOCC1,inactive
12,S=c1[nH]nc(-c2cccs2)n1/N=C/c1cccs1,"inconclusive: 112 µM [inhibitor, single point]"
13,CCC(=O)N1CCCC(C)(C(=O)NS(=O)(=O)c2ccccc2Cl)C1 (stereo unspecified),"inconclusive: 89.1 µM [inhibitor, partial curve, poor fit]"
14,CC(C)N1CC(C(=O)Nc2ccc(Br)c(Cl)c2)CC1=O (stereo unspecified),"inconclusive: 56.2 µM [inhibitor, partial curve, poor fit]"
15,Cc1ccc(NC(=O)COc2ccccc2C(=O)Nc2ccccc2)cc1Cl,inactive
16,CCOc1ccc(S(=O)(=O)N(CC(=O)N2CCC(C(N)=O)CC2)c2ccccc2)cc1,inactive
17,COc1cc(CCC(=O)OCC(=O)Nc2ncc(Cl)cc2Cl)cc(OC)c1OC,"inconclusive: 28.2 µM [inhibitor, partial curve, poor fit]"
18,Cc1cc(=O)n2c3ccccc3n(CC(O)CN3CCC(C)CC3)c2c1C#N (stereo unspecified),inactive
19,CN1c2cccnc2CN(C(=O)Nc2cccc(F)c2)CC[C@H]1CO,inactive
20,CCN(CC)C(=O)Cn1cc(S(=O)(=O)CC(=O)Nc2cc(C)on2)c2ccccc21,"inconclusive: 28.2 µM [inhibitor, single point]"
21,CC(Nc1cc(C)cc(C)c1)=[N+](C)CCNS(=O)(=O)c1ccc(Cl)cc1,"inconclusive: 39.8 µM [inhibitor, partial curve, poor fit]"
22,O=C(NC1CCCCC1)C1CN(C(=O)c2ccc3c(c2)OCO3)CC12CCOCC2 (stereo unspecified),inactive

row,Compound,Potency
1,NS(=O)(=O)c1ccc(NC(=S)NC(=O)c2cccs2)cc1,inactive
2,CC1(COc2ccccc2)COc2ccc(C(=O)NCc3ccccc3)cc2N1 (stereo unspecified),"inconclusive: 70.8 µM [inhibitor, partial curve, poor fit]"
3,Cc1cccc(S(=O)(=O)NC(=O)C2(C)CCN2C(=O)c2c(C)noc2C)c1 (stereo unspecified),inactive
4,Oc1ccc([C@@H]2CNCCc3c2cc(O)c(O)c3Cl)cc1,"inconclusive: 1.58 µM [inhibitor, full curve, poor fit]"
5,CC1CCc2sc(C(=O)OCC(=O)NCCC3=CCCCC3)cc2C1 (stereo unspecified),"inconclusive: 112 µM [inhibitor, partial curve, poor fit]"
6,O=C(NCCc1ccc(C(F)(F)F)cc1)C1CC2CCCC(C1)C2=O (stereo unspecified),inactive
7,CC(=O)c1ccc(NC(=S)NNC(=O)c2ccccc2[N+](=O)[O-])cc1,"inconclusive: 100 µM [inhibitor, single point]"
8,CC(=O)c1cccc(NC(=O)CSc2nnc3ccc(-c4ccc(C)cc4)nn23)c1,"inconclusive: 7.94 µM [inhibitor, full curve, poor fit]"
9,Cc1ccc2oc(C(=O)N(Cc3cccc(Cl)c3)C3CCS(=O)(=O)C3)cc(=O)c2c1 (stereo unspecified),inactive
10,Nc1c(Cl)ncnc1N/N=C/c1ccncc1,"inconclusive: 0.355 µM [inhibitor, full curve, poor fit]"
11,C=CCNC(=O)/C(C#N)=C/c1c(C)nn(-c2ccc(Cl)cc2)c1Cl,"inconclusive: 50.1 µM [inhibitor, partial curve, poor fit]"
12,COc1cccc(CNC(=O)CSCc2cnn(-c3ccccc3)c2-n2cccc2)c1,"inconclusive: 100 µM [inhibitor, partial curve, poor fit]"
13,C=CCNC(=O)CCCOc1cc(C)ccc1C,"inconclusive: 89.1 µM [inhibitor, partial curve, poor fit]"
14,CCOc1cccc2sc(N(CCN(CC)CC)C(=O)c3cccc([N+](=O)[O-])c3)nc12,"inconclusive: 100 µM [inhibitor, partial curve, poor fit]"
15,COc1ccccc1-c1nnc2n(CCc3ccccc3)c(=O)c3ccccc3n12,"inconclusive: 89.1 µM [inhibitor, partial curve, poor fit]"
16,CCOc1ccc(Cl)cc1/C=N/NC(=O)c1ccccc1,inactive
17,Cc1ccc(S(=O)(=O)C2(C(=O)Nc3ccc(Br)cc3)CC2)cc1,"inconclusive: 14.1 µM [inhibitor, full curve, poor fit]"
18,Cc1ccc2c(c1)c1c(n2CC(O)Cn2c(C)nc3ccccc32)CCCC1 (stereo unspecified),"inconclusive: 50.1 µM [inhibitor, partial curve, poor fit]"
19,COc1cccc(CCC(=O)N2[C@@H]3CC[C@H]2CC(NC(=O)c2ccc(F)cc2)C3)c1 (stereo partly specified),inactive
20,COc1ccc2cc(/C=C(/C#N)c3nc4ccccc4[nH]3)ccc2c1,"inconclusive: 35.5 µM [inhibitor, partial curve, poor fit]"
21,Cc1ccc(-c2nc3cccnc3s2)cc1NS(C)(=O)=O,inactive
22,O=C(/C=C/c1ccco1)NC(=S)Nc1cccc(-c2nc3ccccc3o2)c1,"inconclusive: 15.8 µM [inhibitor, partial curve, poor fit]"

# In another format: entries from further up
row	Compound	Potency
1	CCNC(=O)N1CCCC1c1noc(CCC(=O)NCC(C)C)n1 (stereo unspecified)	inconclusive: 70.8 µM [inhibitor, partial curve]
15	Cc1ccc(NC(=O)COc2ccccc2C(=O)Nc2ccccc2)cc1Cl	inactive
17	COc1cc(CCC(=O)OCC(=O)Nc2ncc(Cl)cc2Cl)cc(OC)c1OC	inconclusive: 28.2 µM [inhibitor, partial curve, poor fit]
18	Cc1cc(=O)n2c3ccccc3n(CC(O)CN3CCC(C)CC3)c2c1C#N (stereo unspecified)	inactive
